Assay results as given in patent publication US6017533A (priority 1996, dated 2000).
Values joined by “and” are separate entries in the source; they are usually repeats but may differ in a detail not shown here. Equal entries are not always repeated. Where two headings read alike, the source gives them in different places. Not every detail of the peptide structures is certain; ends, links or a residue may be inferred. No end group written: not given here.

Assays:
[1] = biological target: T1, PACAP human type 3 (VIP human type 2) receptor (Homo sapiens, UniProt P41587); experiment: Cyclic AMP production in PACAP type 3 receptor cDNA transfected COS cells; assay type: cell-based; conditions: 100 nM peptide, 37° C. 10 minutes, FIG. 4
T1 construct: expressed in transfected cells; host or cells: COS cells, DEAE-dextran transient transfection
T1 sequence (P41587 24-438): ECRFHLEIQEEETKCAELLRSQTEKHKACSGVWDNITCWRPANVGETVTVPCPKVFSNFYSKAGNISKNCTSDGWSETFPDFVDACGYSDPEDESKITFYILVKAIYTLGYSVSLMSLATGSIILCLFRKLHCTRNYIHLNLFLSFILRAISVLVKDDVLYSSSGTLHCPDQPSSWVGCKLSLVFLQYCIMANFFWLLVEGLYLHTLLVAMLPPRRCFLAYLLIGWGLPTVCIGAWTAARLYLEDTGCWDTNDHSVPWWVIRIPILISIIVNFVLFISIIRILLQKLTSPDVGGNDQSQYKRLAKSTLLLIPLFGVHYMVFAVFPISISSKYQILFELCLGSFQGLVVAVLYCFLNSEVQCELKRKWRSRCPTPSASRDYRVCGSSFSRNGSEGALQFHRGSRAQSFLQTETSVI

[2] = biological target: PACAP receptor in rat brain crude membrane; experiment: Inhibition of specific binding of [125I]MAX and [125I]PACAP 27 to rat brain crude membrane; conditions: for IC50 values relative to the values exhibited by M65: [125I]MAX and [125I]PACAP 27
[3] = radioligand [125I]MAX, 1 hour at 22° C., read-out: IC50, competition with [125I]MAX binding
[4] = radioligand [125I]PACAP 27, 1 hour at 22° C., read-out: IC50, competition with [125I]PACAP 27 binding

| Compound | cyclic AMP production by PACAP type 3 receptor cDNA transfected cells (in words) [1] | IC50 values relative to the values exhibited by M65 [2] | IC50 [2, 3] [µM] | IC50 [2, 4] |
| --- | --- | --- | --- | --- |
| CC[C@H](C)[C@H](NC(=O)CNC(=O)[C@H](CC(=O)O)NC(=O)[C@H](CO)NC(=O)[C@@H](N)Cc1c[nH]cn1)C(=O)N[C@@H](Cc1ccccc1)C(=O)N[C@H](C(=O)N[C@@H](CC(=O)O)C(=O)N[C@@H](CO)C(=O)N[C@@H](Cc1ccc(O)cc1)C(=O)N[C@@H](CO)C(=O)N[C@@H](CCCNC(=N)N)C(=O)N[C@@H](Cc1ccc(O)cc1)C(=O)N[C@@H](CCCNC(=N)N)C(=O)N[C@@H](CCCCN)C(=O)N[C@@H](CCC(N)=O)C(=O)N[C@@H](CCSC)C(=O)N[C@@H](C)C(=O)N[C@H](C(=O)N[C@@H](CCCCN)C(=O)N[C@@H](CCCCN)C(=O)N[C@@H](Cc1ccc(O)cc1)C(=O)N[C@@H](CC(C)C)C(=O)N[C@@H](C)C(=O)N[C@@H](C)C(=O)N[C@H](C(=O)N[C@@H](CC(C)C)C(=O)NCC(=O)N[C@@H](CCCCN)C(=O)N[C@@H](CCCNC(=N)N)C(=O)N[C@@H](Cc1ccc(O)cc1)C(=O)N[C@@H](CCCCN)C(=O)N[C@@H](CCC(N)=O)C(=O)N[C@@H](CCCNC(=N)N)C(=O)N[C@H](C(=O)N[C@@H](CCCCN)C(=O)N[C@@H](CC(N)=O)C(=O)N[C@@H](CCCCN)C(N)=O)C(C)C)C(C)C)C(C)C)[C@@H](C)O [PACAP 38] | equal to that brought about by VIP |  |  |  |
| CSCC[C@H](NC(=O)[C@H](CCC(N)=O)NC(=O)[C@H](CCCCN)NC(=O)[C@H](CCCNC(=N)N)NC(=O)[C@H](Cc1ccc(O)cc1)NC(=O)[C@H](CCCNC(=N)N)NC(=O)[C@H](CO)NC(=O)[C@H](Cc1ccc(O)cc1)NC(=O)[C@H](CO)NC(=O)[C@H](CC(=O)O)NC(=O)[C@@H](NC(=O)[C@@H](N)Cc1ccccc1)[C@@H](C)O)C(=O)N[C@@H](C)C(=O)N[C@H](C(=O)N[C@@H](CCCCN)C(=O)N[C@@H](CCCCN)C(=O)N[C@@H](Cc1ccc(O)cc1)C(=O)N[C@@H](CC(C)C)C(=O)N[C@@H](C)C(=O)N[C@@H](C)C(=O)N[C@H](C(=O)N[C@@H](CC(C)C)C(=O)NCC(=O)N[C@@H](CCCCN)C(=O)N[C@@H](CCCNC(=N)N)C(=O)N[C@@H](Cc1ccc(O)cc1)C(=O)N[C@@H](CCCCN)C(=O)N[C@@H](CCC(N)=O)C(=O)N[C@@H](CCCNC(=N)N)C(=O)N[C@H](C(=O)N[C@@H](CCCCN)C(=O)N[C@@H](CC(N)=O)C(=O)N[C@@H](CCCCN)C(N)=O)C(C)C)C(C)C)C(C)C [PACAP 6-38] |  | 6-10 times | 0.00835 ± 0.00204 | 0.0391 µM and 0.0351 µM |
| FTDSYSRYRKQMAVKKYLAAVL-NH2 [PACAP 6-27] |  | much higher | 0.235 ± 0.0562 | 1.03 ± 0.063 µM |
